Measurements taken from patent US20110165066A1.
Where a chain is given by its changes, count along the chain named. Results are given in words; binding and its absence hold for the method and conditions named. Some entries that bind do so weakly or less than the wild type.

Amino acid sequences for entries named in this document (tags omitted). A change or cut given only in a name is not applied to a line headed by its entry. Chains listed by the source or under a name are the forms on record and can include a tag or linker.
cynomolgus IL-13 (Q0PW92, form named): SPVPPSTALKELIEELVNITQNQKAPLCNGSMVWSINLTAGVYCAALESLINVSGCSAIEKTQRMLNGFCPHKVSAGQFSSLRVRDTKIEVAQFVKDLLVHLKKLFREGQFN

B1: 13C5.5L2E (antibody, V domains shown)
VH: EVTLRESGPGLVKPTQTLTLTCTLYGFSLSTSDMGVDWIRQPPGKGLEWLAHIWWDDVKRYNPALKSRLTISKDTSKNQVVLKLTSVDPVDTATYYCARTVSSGYIYYAMDYWGQGTLVTVSS
VL: DIQMTQSPSSLSASVGDRVTISCRASQDIRNYLNWYQQKPGKAPKLLIFYTSMKPRGVPSRFSGSGSGTDYTLTISSLQPEDIATYYCQQGNTLPLTFGGGTKVEIK
B2: 13C5.5L3F (antibody, V domains shown)
VH: B1 VH
VL: B1 VL with M53K, K54L, P55H, R56S, N92L, L94P
B3: 13C5.5L2EL3F (antibody, V domains shown)
VH: B1 VH
VL: B1 VL with N92L, L94P

biological target: cynomolgus IL-13 (cynomolgus) (UniProt Q0PW92); assay: SPR (Biacore)

| Binder | binding |
| --- | --- |
| B1 | binds |
| B2 | binds |
| B3 | binds |
